Data from article PMC11877631, “Novel Nucleus-Oriented Quenched Activity-Based Probes Link Cathepsin Nuclear Localization with Mitosis” (ACS Sensors, 2025).

Tested on: NIH-3T3 cells
Assay: Live cell confocal imaging
Format: cell-based, mouse
Settings: NIH-3T3, 2.5 μM, imaged for 6 h with 2 h intervals
Procedure: NIH-3T3 or HeLa cells were seeded in an 8-well coverslip chamber (Lab-Tek) at a density of 100,000 cells per well and grown at 37 °C under 5% of CO2, 24 h later, cells were treated with 2.5 μM KRSs probes for 6 h. The medium was replaced with DMEM without phenol red, and Hoechst was added to a final concentration of 5 μg/mL. Live imaging of cells using a Zeiss LSM 710 Axio Observer.Z1 with a 63/24 Oil DIC M27 lens, in Cy3 and DAPI channels, was performed over 24 h; pictures were taken every 20–25 min. The Z-stack analysis was performed using 3–5 different depths focusing on the cell nucleus; each slice was 1–1.5 μm. Image processing was performed using NIS-Elements image acquisition software, quantifying the 63× images of several experiments and calculating the average fluorescence intensity. Statistics and standard deviation were calculated by using Microsoft Excel.

Row | Substance | Cellular localization of probe signal
1 | Ac-Cys-Phe-Phe-Lys-(TMR-X)-AOMK-QSY7 [KRS-D1(qAc)] | more scattered in the cell
2 | NLS-Cys-Phe-Phe-Lys-(TMR-X)-AOMK-QSY7 [KRS-E1(qNLS)] | mostly localized to the peri-nuclear region
3 | TAT-Cys-Phe-Phe-Lys-(TMR-X)-AOMK-QSY7 [KRS-B1(qTAT)] | mostly localized to the peri-nuclear region
